Results taken from patent publication US20130023534A1, “PYRAZOLYL-PYRIMIDINES AS KINASE INHIBITORS” (priority 2010, published 2013).
Counter-ions that a name gives are not always drawn. Some results were stated once for a whole list of compounds, not compound by compound.

The chains behind the UniProt entries cited, without tags or fusion partners.
UniProt O43353, whole entry: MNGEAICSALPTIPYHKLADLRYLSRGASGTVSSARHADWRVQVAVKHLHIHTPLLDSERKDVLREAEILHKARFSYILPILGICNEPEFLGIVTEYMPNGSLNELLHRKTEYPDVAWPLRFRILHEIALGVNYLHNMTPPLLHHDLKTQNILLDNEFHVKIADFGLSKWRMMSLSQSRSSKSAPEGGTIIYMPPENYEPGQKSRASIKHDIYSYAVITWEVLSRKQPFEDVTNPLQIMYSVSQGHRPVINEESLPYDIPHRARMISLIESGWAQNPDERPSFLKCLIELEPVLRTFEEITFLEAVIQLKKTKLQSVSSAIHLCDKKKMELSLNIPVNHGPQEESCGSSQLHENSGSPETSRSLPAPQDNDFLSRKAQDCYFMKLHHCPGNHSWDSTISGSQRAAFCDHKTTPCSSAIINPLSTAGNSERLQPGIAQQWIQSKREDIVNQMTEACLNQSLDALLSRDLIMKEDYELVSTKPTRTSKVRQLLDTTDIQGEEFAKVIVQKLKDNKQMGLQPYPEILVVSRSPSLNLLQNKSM

Molecular target: T1, RIPK2 (Homo sapiens, UniProt O43353)
T1 construct: Full length FLAG His tagged RIPK2 was purified from a Baculovirus expression system; FLAG (N); 6His (N); made in house; host or cells: Spodoptera frugiperda (Sf9) insect cells, baculovirus
Assay: Fluorescent polarization based binding assay at the ATP binding pocket of RIPK2
Conditions: full length FLAG His tagged RIPK2; competition with fluorescently labeled ATP competitive ligand (5 nM); mean of a minimum of 2 experiments

Row | SMILES | mean pIC50
1 | Cc1cc(Nc2nccc(N(C)c3n[nH]c(C)c3C)n2)cc(S(=O)(=O)C(C)(C)C)c1 [Example 139, N^2-{3-[(1,1-dimethylethyl)sulfonyl]-5-methylphenyl}-N^4-(4,5-dimethyl-1H-pyrazol-3yl)-N^4-methyl-2,4-pyrimidinediamine] | greater than or equal to 6.0
2 | COc1ccc(-n2nc(C)c(C)c2Nc2ccnc(Nc3cccc(S(C)(=O)=O)c3)n2)nc1 [Example 105, N^4-{3,4-dimethyl-1-[5-(methyloxy)-2-pyridinyl]-1H-pyrazol-5-yl}-N^2-[3-(methylsulfonyl)phenyl]-2,4-pyrimidinediamine trifluoroacetate] | greater than or equal to 6.0
3 | Cc1nn(C)c(Nc2ccnc(Nc3cccc(S(C)(=O)=O)c3)n2)c1C [Example 19, N^2-[3-(methylsulfonyl)phenyl]-N^4-(1,3,4-trimethyl-1H-pyrazol-5-yl)-2,4-pyrimidinediamine trifluoroacetate] | greater than or equal to 6.0
4 | COc1cccc(-n2nc3c(c2Nc2ccnc(Nc4ccc(OC)c(OC)c4)n2)CCC3)c1 [Example 25, N^2-[3,4-bis(methyloxy)phenyl]-N^4-{2-[3-(methyloxy)phenyl]-2,4,5,6-tetrahydro-cyclopenta[c]pyrazol-3-yl}-2,4-pyrimidinediamine trifluoroacetate] | greater than or equal to 6.0
5 | Cc1n[nH]c(Nc2ccnc(Nc3cccc(NS(C)(=O)=O)c3)n2)c1C [Example 85, N-[3-({4-[(3,4-dimethyl-1H-pyrazol-5-yl)amino]-2-pyrimidinyl}amino)phenyl]methanesulfonamide] | greater than or equal to 6.0
6 | COc1ccc(Nc2nccc(Nc3n[nH]c(C)c3C)n2)cc1OC [Example 27, N^2-[3,4-bis(methyloxy)phenyl]-N^4-(4,5-dimethyl-1H-pyrazol-3-yl)-2,4-pyrimidinediamine] | greater than or equal to 6.0
7 | Cc1n[nH]c(Nc2ccnc(Nc3cccc(C#N)c3)n2)c1C [Example 86, 3-({4-[(3,4-dimethyl-1H-pyrazol-5-yl)amino]-2-pyrimidinyl}amino)benzonitrile] | greater than or equal to 6.0
8 | Cc1[nH]nc(Nc2ccnc(Nc3ccc(F)c(S(C)(=O)=O)c3)n2)c1C [Example 62, N4-(4,5-dimethyl-1H-pyrazol-3-yl)-N2-[4-fluoro-3-(methylsulfonyl)phenyl]-2,4-pyrimidinediamine trifluoroacetate] | greater than or equal to 6.0
9 | Cc1n[nH]c(Nc2ccnc(Nc3cccc(S(=O)(=O)N(C)CCN(C)C)c3)n2)c1C [Example 63, N-[2-(dimethylamino)ethyl]-3-({4-[(3,4-dimethyl-1H-pyrazol-5-yl)amino]-2-pyrimidinyl}amino)-N-methylbenzenesulfonamide trifluoroacetate] | greater than or equal to 6.0
10 | COc1ccc(Nc2nccc(Nc3c4c(nn3-c3ccc(Cl)cc3)CCC4)n2)cc1OC [Example 26, N^2-[3,4-bis(methyloxy)phenyl]-N^4-[2-(4-chlorophenyl)-2,4,5,6-tetrahydro-cyclopenta[c]pyrazol-3-yl]-2,4-pyrimidinediamine trifluoroacetate] | greater than or equal to 6.0
11 | COc1ccc(-n2nc(C)c(C)c2Nc2ccnc(Nc3cccc(S(=O)(=O)N(C)C)c3)n2)cc1 [Example 66, 3-{[4-({3,4-dimethyl-1-[4-(methyloxy)phenyl]-1H-pyrazol-5-yl}amino)-2-pyrimidinyl]amino}-N,N-dimethylbenzenesulfonamide trifluoroacetate] | greater than or equal to 6.0
12 | Cc1n[nH]c(Nc2ccnc(Nc3cccc(SC(C)C)c3)n2)c1C [Example 95, N4-(3,4-dimethyl-1H-pyrazol-5-yl)-N2-{3-[(1-methylethyl)thio]phenyl}-2,4-pyrimidinediamine] | greater than or equal to 6.0
13 | Cc1n[nH]c(Nc2ccnc(Nc3cccc(S(=O)(=O)NC4CCCC4)c3)n2)c1C [Example 79, N-cyclopentyl-3-({4-[(3,4-dimethyl-1H-pyrazol-5-yl)amino]-2-pyrimidinyl}amino)benzenesulfonamide] | greater than or equal to 6.0
14 | Cc1noc(N(C)c2ccnc(Nc3cccc(S(=O)(=O)C4CCCCC4)c3)n2)c1C [Example 169, N~2~-[3-(CYCLOHEXYLSULFONYL)PHENYL]-N~4~-(3,4-DIMETHYL-5-ISOXAZOLYL)-N~4~-METHYL-2,4-PYRIDIMINE-DIAMINE] | greater than or equal to 6.0
15 | COc1ccc(Nc2nccc(Nc3cc(C)nn3-c3ccccc3)n2)cc1OC [Example 57, N^2-[3,4-bis(methyloxy)phenyl]-N^4-(3-methyl-1-phenyl-1H-pyrazol-5-yl)-2,4-pyrimidinediamine trifluoroacetate] | greater than or equal to 6.0
16 | COc1cc(Nc2nccc(Nc3onc(C)c3C)n2)cc(OC)c1OC [Example 155, N^4-(3,4-dimethyl-5-isoxazolyl)-N^2-[3,4,5-tris(methyloxy)phenyl]-2,4-pyrimidinediamine trifluoroacetate] | greater than or equal to 6.0
17 | Cc1n[nH]c(Nc2ccnc(Nc3cccc(-c4ncco4)c3)n2)c1C [Example 98, N4-(3,4-dimethyl-1H-pyrazol-5-yl)-N2-[3-(1,3-oxazol-2-yl)phenyl]-2,4-pyrimidinediamine hydrochloride] | greater than or equal to 6.0
